Source: article PMC7862700
This is a selection; strong and weak results do not stand in their true shares. At the low end of the ranking, values are background and their order means little.

Target: T1, SPIC (UniProt Q8N5J4)
T1 sequence: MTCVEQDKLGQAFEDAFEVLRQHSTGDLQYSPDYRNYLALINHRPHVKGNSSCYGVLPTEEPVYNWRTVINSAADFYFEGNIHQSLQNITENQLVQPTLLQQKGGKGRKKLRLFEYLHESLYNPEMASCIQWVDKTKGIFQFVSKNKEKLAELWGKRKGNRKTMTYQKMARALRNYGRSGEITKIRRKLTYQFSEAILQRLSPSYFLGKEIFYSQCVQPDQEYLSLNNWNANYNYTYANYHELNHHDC
Assay: DAPPL (digital affinity profiling via proximity ligation, sequencing)
Conditions: 10 mM Tris-HCl pH 7.5, 50 mM NaCl, 1 mM DTT, 4% glycerol, room temperature, 30 min; GST-TFs on glutathione beads, 16-mer random dsDNA library, 0.1% …; high values mean tight binding; double strand, one strand shown; scale: fold enrichment (6-mer frequency, TF over GST control)

Sequence | binding signal
TAACAG | 0.977
ACCGCA | 0.937
GGTAAA | 0.913
CACCTT | 1.2
CTATCC | 1.36
TGGCCG | 0.989
CCGTCA | 1.13
CGGTAT | 1.08
TGATAC | 0.977
ATGCTA | 1.23
TAACCA | 0.943
TCAAAG | 0.955
AAGCGC | 1.14
GTAGCA | 1.16
TGATGA | 1.14
CCTTTG | 1.38
AACCGG | 1.4
GCCCAC | 1.13
TATGCT | 1.6
TCCCTG | 1.38
TAGATC | 0.937
AAGTTA | 1.27

Some of the entries so far, in CSV form:
Sequence,binding signal
TAACCA,0.943
GTAGCA,1.16
AAGTTA,1.27

More records:

Sequence | binding signal
CTAGTA | 0.953
TATACA | 1.28
TGGAAT | 1.22
TTGCTT | 1.38
CACATG | 0.98
TCTCGT | 1.31
TGTCTT | 1.39
CATTTG | 1.15
TCAAGG | 0.997
ACCTGG | 1.18
ACGACA | 1.18
CTGTCC | 1.13
CTATGC | 1.54
GGATGT | 1.41
GCACAT | 1.14
GCCCCC | 1.26
ACCATT | 0.952
GCGTCC | 1.23
CACTCA | 1.3
AAATCA | 1.18
GCCACT | 1.12
CCCTGA | 0.952

Sequence | binding signal
ATCCTA | 1.44
TCATAT | 1.13
TTAGCT | 1.16
TGTTTA | 1.05
TACAAA | 0.922
TAAACT | 1.12
GACCGG | 0.997
GATCTA | 1.01
CGGAAG | 2.79
TGACAT | 1.07
TCGCAT | 1.02
ACACGC | 0.994
TGACAA | 1.11
ACTATT | 1.44
GTAGCT | 0.961
CCTTTA | 1.32
CATATC | 1.23
ACTATG | 1.37
ACTTGC | 1.36
CTGTAC | 1.41
GTACCT | 1.44
